Structures can show the parent of a compound that is named as a salt. This is one part of the list. Part of the spread comes from offsets between plates or batches.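 HEK293 lines stably express B-domain-deleted factor VIII fused to Gaussia luciferase, wild type or a misfolding-prone missense mutant. Scores equal triplicate-well mean luminescence minus DMSO mean, divided by DMSO standard deviation; scores of 2 or higher are hits. Low scores may indicate reduced secretion or worse cell viability.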
How the values were obtained:
HEK293 WT BDD-FVIII-Gluc = test: secreted FVIII-Gluc luciferase Z-score vs DMSO control; higher = more FVIII-Gluc secretion; details: 5 µM; 24 h
[1] = test system: HEK293 p.N1941S BDD-FVIII-Gluc; test: as above; details: 5 µM; 24 h

| Structure (SMILES) | secreted FVIII-Gluc luciferase Z-score (HEK293 WT BDD-FVIII-Gluc) | secreted FVIII-Gluc luciferase Z-score [1] |
| --- | --- | --- |
| Nc1nnc(-c2cccc(Cl)c2Cl)c(N)n1 [Lamotrigine] | inactive: -0.189 | inactive: 0.313 |
| C[C@@]12C[C@@]3(O)O[C@@H](O1)[C@]1(COC(=O)c4ccccc4)[C@H]3C[C@@]12O[C@@H]1O[C@H](CO)[C@@H](O)[C@H](O)[C@H]1O [Paeoniflorin] | inactive: 0.158 | inactive: -1.36 |
| O=C(CCCN1CCN(c2ccccn2)CC1)c1ccc(F)cc1 [Azaperone] | inactive: -0.201 | inactive: -0.0655 |
| CC(C(=O)O)c1ccc2c(c1)Cc1cccnc1O2 (centres undefined) [Pranoprofen] | inactive: -0.41 | inactive: 0.111 |
| COc1cccc2c1C(=O)c1c(O)c3c(c(O)c1C2=O)C[C@@](O)(C(=O)CO)C[C@@H]3O[C@H]1C[C@H](N)[C@H](O)[C@H](C)O1 [Doxorubicin (Adriamycin)] | inactive: -3.99 | inactive: -11.6 |
| CCCCCCCCCCCC[N+](C)(C)CCOc1ccccc1 [Domiphen Bromide] | inactive: 0.143 | inactive: 0.111 |
| CCCC(=O)OCOC(=O)C1=C(C)NC(C)=C(C(=O)OC)C1c1cccc(Cl)c1Cl (centres undefined) [Cleviprex (Clevidipine)] | inactive: -0.331 | inactive: -0.277 |
| CN(C)CCOc1ccc(/C(=C(/CCCl)c2ccccc2)c2ccccc2)cc1 [Toremifene Citrate (Fareston, Acapodene)] | inactive: -0.939 | inactive: -0.472 |
| OCC(O)CN1CCN(c2ccccc2)CC1 (centres undefined) [Dropropizine] | inactive: 0.542 | inactive: 0.297 |
| CCc1ccc(CCOc2ccc(CC3SC(=O)NC3=O)cc2)nc1 (centres undefined) [Pioglitazone hydrochloride (Actos)] | inactive: -1.04 | inactive: -2.6 |
| O=C(O)Cc1ccccc1Nc1c(Cl)cccc1Cl [Diclofenac Diethylamine] | active: 2.39 | inactive: 0.112 |
| O=C(O)Cc1ccccc1Nc1c(Cl)cccc1Cl [Diclofenac Potassium] | active: 2.21 | inactive: 0.537 |
| CN(C)c1cc(NC(=O)CNC(C)(C)C)c(O)c2c1CC1CC3C(N(C)C)C(=O)C(C(N)=O)=C(O)C3(O)C(=O)C1=C2O (centres undefined) [Tigecycline] | inactive: -2.48 | inactive: -0.877 |
| CC1(C)O[C@@H]2C[C@H]3[C@@H]4C[C@H](F)C5=CC(=O)C=C[C@]5(C)[C@@]4(F)[C@@H](O)C[C@]3(C)[C@]2(C(=O)CO)O1 [Fluocinolone acetonide (Flucort-N)] | active: 4.6 | active: 9.62 |
| CCCCOc1cc(C(=O)NCCN(CC)CC)c2ccccc2n1 [Dibucaine HCL] | inactive: -0.435 | inactive: 0.856 |
| CC(C)(O/N=C(\C(=O)N[C@@H]1C(=O)N2C(C(=O)[O-])=C(C[n+]3ccccc3)CS[C@H]12)c1csc(N)n1)C(=O)O [Ceftazidime Pentahydrate] | inactive: -0.774 | inactive: 1.25 |
| CC(C)[C@H](N)C(=O)OCC(CO)OCn1cnc2c(=O)nc(N)[nH]c21 (some centres undefined) [valganciclovir hydrochloride] | inactive: -0.698 | inactive: 0.0036 |
| CCCCCCCCCCC[C@@H](C[C@@H]1OC(=O)[C@H]1CCCCCC)OC(=O)[C@H](CC(C)C)NC=O [Orlistat (Alli, Xenical)] | inactive: -2.93 | inactive: -0.05 |
| Cc1cc(C2CCCCC2)n(O)c(=O)c1 [Ciclopirox ethanolamine] | inactive: -7.25 | inactive: -1.37 |
| CCOC(=O)C1=C(C)NC(C)=C(C(=O)OC)C1c1cccc([N+](=O)[O-])c1 (centres undefined) [Nitrendipine] | inactive: -0.863 | inactive: -1.11 |
| [I-].[K+] [Potassium iodide] | inactive: -1.09 | inactive: -0.37 |
| CCC(=O)OCC(=O)[C@@]1(OC(=O)CC)[C@@H](C)C[C@H]2[C@@H]3CCC4=CC(=O)C=C[C@]4(C)[C@@]3(Cl)[C@@H](O)C[C@@]21C [Beclomethasone dipropionate] | active: 13 | active: 3.44 |
| COC(c1ccccc1)(c1ccccc1)[C@H](Oc1nc(C)cc(C)n1)C(=O)O [Ambrisentan] | inactive: 0.507 | inactive: -0.871 |
| CCCN(CCC)CCc1cccc2c1CC(=O)N2 [Ropinirole HCl] | inactive: -1.11 | inactive: 0.694 |

Record cards, from the list above. Order of values: secreted FVIII-Gluc luciferase Z-score (HEK293 WT BDD-FVIII-Gluc) | secreted FVIII-Gluc luciferase Z-score [1]
COC(c1ccccc1)(c1ccccc1)[C@H](Oc1nc(C)cc(C)n1)C(=O)O [Ambrisentan] in the list: inactive: 0.507 | inactive: -0.871
CCCCCCCCCCCC[N+](C)(C)CCOc1ccccc1 [Domiphen Bromide] in the list: inactive: 0.143 | inactive: 0.111

Additional results:

| Structure (SMILES) | secreted FVIII-Gluc luciferase Z-score (HEK293 WT BDD-FVIII-Gluc) | secreted FVIII-Gluc luciferase Z-score [1] |
| --- | --- | --- |
| CC(C)NCC(O)COc1ccc(CCOCC2CC2)cc1 (centres undefined) [Betaxolol (Betoptic)] | inactive: -0.31 | inactive: -1.11 |
| CC(C)Cc1ccc(C(C)C(=O)O)cc1 (centres undefined) [Ibuprofen (Advil)] | active: 2.54 | inactive: 0.342 |
| Cc1ccccc1C(OCCN(C)C)c1ccccc1 (centres undefined) [Orphenadrine citrate (Norflex)] | inactive: -1.88 | inactive: -1.58 |
| CN(Cc1ccc(C(C)(C)C)cc1)Cc1cccc2ccccc12 [Butenafine HCl] | inactive: -1.69 | inactive: -0.595 |
| CCCC(CCC)C(=O)O [Divalproex sodium] | inactive: -1.4 | inactive: 1.45 |
| CCCNC(C)C(=O)Nc1c(C)csc1C(=O)OC (centres undefined) [Articaine HCl] | inactive: -0.662 | inactive: -1.25 |
| COc1nc(C)nc(Cl)c1NC1=NCCN1 [Moxonidine] | inactive: -0.486 | inactive: -0.286 |
| NC(=O)NO [Hydroxyurea (Cytodrox)] | inactive: 0.139 | inactive: -0.497 |
| Fc1ccc(C(c2ccc(F)cc2)N2CCN(C/C=C/c3ccccc3)CC2)cc1 [Flunarizine 2HCl] | active: 3.14 | inactive: -2.56 |
| CCc1c2c(nc3ccc(OC(=O)N4CCC(N5CCCCC5)CC4)cc13)-c1cc3c(c(=O)n1C2)COC(=O)[C@]3(O)CC [Irinotecan HCl Trihydrate (Campto)] | inactive: -4.18 | inactive: -4.96 |
| O=C(N/N=C/c1ccc([N+](=O)[O-])o1)c1ccc(O)cc1 [Nifuroxazide] | inactive: 0.575 | inactive: -0.556 |
| C[C@@H](Oc1cc(-c2cnn(C3CCNCC3)c2)cnc1N)c1c(Cl)ccc(F)c1Cl | inactive: -4.65 | inactive: -13.9 |
| C[C@@H](O[C@H]1OCCN(Cc2n[nH]c(=O)[nH]2)[C@H]1c1ccc(F)cc1)c1cc(C(F)(F)F)cc(C(F)(F)F)c1 [Aprepitant (MK-0869)] | inactive: 1.02 | inactive: -1.01 |
| Clc1ccccc1C(c1ccccc1)(c1ccccc1)n1ccnc1 [Clotrimazole (Canesten)] | inactive: -1.93 | inactive: -1.4 |
| CC(C)NCC(O)COc1ccc(COCCOC(C)C)cc1 (centres undefined) [Bisoprolol fumarate] | inactive: -1.62 | inactive: 0.0555 |
| CCOc1nc2cccc(C(=O)OCc3oc(=O)oc3C)c2n1Cc1ccc(-c2ccccc2-c2noc(=O)[nH]2)cc1 [Azilsartan Medoxomil (TAK-491)] | inactive: -1.54 | inactive: -0.632 |
| CC[C@@H]([C@H](C)O)n1ncn(-c2ccc(N3CCN(c4ccc(OC[C@@H]5CO[C@@](Cn6cncn6)(c6ccc(F)cc6F)C5)cc4)CC3)cc2)c1=O [Posaconazole] | inactive: -1.7 | inactive: -9.48 |
| N=C(N)NC(=N)N1CCOCC1 [Moroxydine] | inactive: 0.215 | inactive: -0.587 |
| CC(=O)N[C@@H](CS)C(=O)O [Acetylcysteine] | inactive: -1.31 | inactive: 0.0724 |
| Nc1nc2c(ncn2COCCO)c(=O)[nH]1 [Acyclovir (Aciclovir)] | inactive: 1.24 | inactive: 0.664 |
| COc1cc(NC(C)CCCN)c2ncccc2c1 (centres undefined) [Primaquine Diphosphate] | inactive: -1.45 | inactive: -0.794 |
| COC(=O)C1=C(C)NC(C)=C(C(=O)OC)C1c1ccccc1[N+](=O)[O-] [Nifedipine (Adalat)] | inactive: -0.615 | inactive: 0.731 |
| CCC(=O)OCC(=O)[C@@]1(OC(=O)CC)[C@@H](C)C[C@H]2[C@@H]3CCC4=CC(=O)C=C[C@]4(C)[C@@]3(F)[C@@H](O)C[C@@]21C [Betamethasone Dipropionate] | active: 7.63 | active: 7.5 |

Source: the supplement of paper PMC12024529
